In US20240279302A1, “OLFACTORY RECEPTOR EXPRESSING METHOD AND RESPONSE MEASUREMENT METHOD” (Kao Corporation, priority 2021, published 2024):

B1: consensus M71: consensus olfactory receptor polypeptide of mouse olfactory receptor M71 (protein)
chain: MAAENHSTVTEFILGGLTNRPELQLPLFLLFLGIYVVTMVGNLGMITLIGLNSQLHTPMYFFLSNLSLVDLCYSSVITPKMLVNFVSQKNLISYVGCMSQLYFFLVFVIAECYMLTVMAYDRYVAICHPLLYNIIMSHALCSLLVAFVYAMGLIGSTIETGLMLKLNYCEDLISHYFCDILPLMKLSCSSTYDVEMAVFFLAGFNIIVTSLTVLISYAFILSSILRISSTEGRSKAFSTCSSHLAAVGLFYGSTAFMYLKPSTASSLAQENVASVFYTTVIPMLNPLIYSLRNKEVKAALQKTLRRKLF
modifications: M71 consensus-c
B2: consensus OR7A17 (a): consensus olfactory receptor polypeptide (protein)
chain: MEPENDTGISEFLLLGLSEEPELQPFLFGLFLSMYLVTVLGNLLIILATISDSHLHTPMYFFLSNLSFADICFISTTVPKMLINIQTQSRVITYAGCITQMCFFVLFGGLDSLLLAVMAYDRFVAICHPLHYTVIMNPRLCGLLVLASWMIAALNSLSQSLMVLWLSFCTDLEIPHFFCELNQVIHLACSDTFLNDMGMYFAAGLLAGGPLAGILYSYSKIVSSIRAISSAQGKYKAFSTCASHLSVVSLFCCTGLGVYLTSAATHNSHTSATASVMYTVATPMLNPFIYSLRNKDIKRALKMSFRGKQ
modifications: OR7A17 consensus-a
notes: consensus olfactory receptor polypeptide
B3: consensus OR5AN1: consensus olfactory receptor polypeptide (protein)
chain: MIGGGNITEITYFILLGFSDFPRIIAVLFVIFLVIYITTLTWNLSLIVLIRMDSHLHTPMYFFLSNLSFIDICYVTSTVPKMLSNFFQEQQTITFVGCIVQYFIFSTMGLSESCLMTAMAYDRYAAICNPLLYSSIMSPTLCVWMVLGSYMAGLTASLSQLCALLQLHFCGPNVIRHFFCDMPQLLILSCTDTFFVQVLTAILTMFFGIANALVIMISYGYIVISIMKITSAKGRSKAFNTCASHLTAVSLFYTSGIFVYLSSSSGGSSSFDRFASVFYTVVIPMLNPLIYSLRNKEIKDALKRLQKRKCC
modifications: OR5AN1 consensus-c
notes: as for B2
B4: consensus OR7D4 (c): consensus olfactory receptor polypeptide (protein)
chain: MEAENHTEVSEFLLLGLSEDPELQPLLFGLFLSMYLVTVLGNLLIILAISSDSHLHTPMYFFLSNLSFVDICFISTTVPKMLVNIQAQSKDISYMGCLTQVYFFMIFAGMDNFLLTVMAYDRFVAICHPLHYTVIMNPRLCGLLVLASWFIIFWVSLVHILLMKRLTFCTGTEIPHFFCELAQVLKVACSDTLINNIVLYVATALLGVFPLTGILFSYSQIVSSLMRMSSTKGKYKAFSTCGSHLSVVSLFYGTGLGVYLSSAVTHSSQSSSIASVMYTVVTPMLNPFIYSLRNKDVKGALGRLLSRAASCP
modifications: OR7D4 consensus-c
notes: as for B2
B5: original M71: typical mouse olfactory receptor, SEQ ID NO: 483 (protein, listed as Mus musculus)
chain: MTAENQSTVTEFILGGLTNRPELQLPLFLLFLGIYVVTMVGNLGMITLIGLNSQLHTPMYFFLSNLSLVDLCYSSVITPKMLINFVSQRNLISYVGCMSQLYFFLVFVIAECYMLTVMAYDRYVAICQPLLYNIIMSPALCSLLVAFVYAVGLIGSAIETGLMLKLNYCEDLISHYFCDILPLMKLSCSSTYDVEMAVFFLAGFDIIVTSLTVLISYAFILSSILRISSNEGRSKAFSTCSSHFAAVGLFYGSTAFMYLKPSTASSLAQENVASVFYTTVIPMFNPLIYSLRNKEVKTALDKTLRRKVF
B6: consensus OR4S2 (b): consensus olfactory receptor polypeptide (protein)
chain: MEKINNVTEFIFWGLSQSPEVQRVCFVVFLFFYIAIVLGNLLIVLTVCLSNSLKSPMYFFLSFLSFVEICYSSVTAPKMIVDLLAKDKTISYVGCMLQLFFVHFFGCTEIFLLTVMAYDRYVAICKPLHYMTIMNRQTCNKLVLGTWVGGFLHSIIQVLLVVQLPFCGPNVIDHYFCDLHPVLKLACTDTFIVGVVVTANSGTIALGSFVILLISYSIILVSLRKQSAEGRRKALSTCGSHITVVILFFGPCIFMYMRPSTTFSEDKMVAVFYTIITPMLNPLIYTLRNAEVKNAMKKLWGRNVFLEAKGK
modifications: OR4S2 consensus-b
notes: as for B2
B7: consensus OR2A25 (b): consensus olfactory receptor polypeptide (protein)
chain: MGGNQTSITEFLLLGFPVGPRIQMLLFGLFSLFYVFTLLGNGTILGLISLDSRLHTPMYFFLSHLAVVDIAYACNTVPQMLVNLLHPAKPISFAGCMTQTFLFLSFAHTECLLLVVMSYDRYVAICHPLRYSAIMTWRVCITLALTSWTLGVLLALIHLVLLLPLPFCRPQKINHFFCEIMAVLKLACADTHINEVMVLAGAISVLVGPLSSIVVSYMCILCAILKIQSGEGQRKAFSTCSSHLCVVGLFYGTAIIMYVGPQYGNPKEQKKYLLLFHSLFNPMLNPLIYSLRNSEVKNTLKRMLEKERAL
modifications: OR2A25 consensus-b
notes: as for B2

System: HEK293 cell membranes
Test: Measurement of olfactory receptor protein level on cell membrane (flow cytometry)
Format: cell-based, human
Conditions: for membrane expression level (Cell surface expression (%)): mouse olfactory receptor M71 in HEK293 cells, 24 hours after transfection, mean±SEM, n=3; for membrane expression level in comparison with the original olfactory receptor: consensus design, HEK293 cells

Molecule	membrane expression level (Cell surface expression (%))	membrane expression level in comparison with the original olfactory receptor
B1	3.20±0.19%	
B2		no increase in membrane expression level
B3		not found to increase its membrane expression level
B4		slightly increased
B5	0.78±0.07%	
B6		no increase in membrane expression level
B7		slightly increased
